Results: the supplement of paper PMC9454738
Structures can show the parent of a compound that is named as a salt. ± gives the standard deviation of the averaged measurements. The list shows a part of the results. Repeats in this data set agree poorly, so a single value says little.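 Test systems: triple-negative MDA-MB-231 breast cancer cells and their brain-metastatic MDA-MB-231BRM derivative, each stably carrying empty vector, full-length GLI1 or truncated tGLI1. Viability after 48 h was read by CellTiter-Blue and expressed against 1% DMSO vehicle. A compound was tGLI1-selective if it lowered viability 20% more in tGLI1 cells than in vector and GLI1 cells.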

How the values were obtained:
Experiment in all cases: cell viability relative to vehicle (DMSO) control (fraction); higher = more viable cells (less growth inhibition)
Conditions in all cases: treatment time 48 h
[1] = system: MDA-MB-231 GLI1
[2] = system: MDA-MB-231 Vector
[3] = system: MDA-MB-231 tGLI1
[4] = system: MDA-MB-231BRM GLI1
[5] = system: MDA-MB-231BRM Vector
[6] = system: MDA-MB-231BRM tGLI1

Row | Structure (SMILES) | cell viability ([1]; 0.05 µM) | cell viability ([1]; 0.5 µM) | cell viability ([1]; 5 µM) | cell viability ([2]; 0.05 µM) | cell viability ([2]; 0.5 µM) | cell viability ([2]; 5 µM) | cell viability ([3]; 0.05 µM) | cell viability ([3]; 0.5 µM) | cell viability ([3]; 5 µM) | cell viability ([4]; 0.05 µM) | cell viability ([4]; 0.5 µM) | cell viability ([4]; 5 µM) | cell viability ([5]; 0.05 µM) | cell viability ([5]; 0.5 µM) | cell viability ([5]; 5 µM) | cell viability ([6]; 0.05 µM) | cell viability ([6]; 0.5 µM) | cell viability ([6]; 5 µM)
1 | COc1ccc(Cl)cc1NC(=O)Nc1cc(C)nc2ccccc12 | 1.23 | 1.86 | 1.04 | 0.66 | 0.603 | 0.492 | 0.725 | 0.774 | 0.642 | 0.447 | 0.422 | 0.204 | 0.58 | 0.525 | 0.229 | 0.745 | 0.605 | 0.45
2 | CN1CC[C@H](c2c(O)cc(O)c3c(=O)cc(-c4ccccc4Cl)oc23)[C@H](O)C1 [Flavopiridol HCl] | 0.43 | 0.621 | 0.156 | 0.568 | 0.276 | 0.299 | 0.506 | 0.182 | 0.189 | 1.14 | 1.06 | 1.07 | 1.09 | 1.08 | 1.04 | 0.958 | 1.01 | 0.962
3 | N[C@@H]1CCCN(c2c(/C=C3\SC(=O)NC3=O)cccc2-c2ccccc2)C1 | 1.15 | 1.66 | 0.934 | 1.23 | 1.27 | 1.35 | 1.29 | 1.35 | 1.33 | 0.984 | 0.984 | 0.928 | 1.03 | 1.05 | 1 | 0.999 | 0.992 | 1.01
4 | Nc1nc(Nc2ccc3c(c2)CCC(N2CCCC2)CC3)nn1-c1cc2c(nn1)-c1ccccc1CCC2 (configuration not stated) | 1.21 | 1.1 | -0.19 | 1.14 | 1.05 | -0.192 | 1.28 | 0.912 | -0.168 | 0.977 | 1.1 | 0.598 | 0.968 | 0.969 | 0.472 | 0.955 | 0.95 | 0.626
5 | O=C(NOCC1CC1)c1ccc(F)c(F)c1Nc1ccc(I)cc1Cl | 1.33 | 1.63 | 0.743 | 1.39 | 1.16 | 0.511 | 1.36 | 1.35 | 0.575 | 0.911 | 0.999 | 1.02 | 0.907 | 0.963 | 1.02 | 0.954 | 0.985 | 0.958
6 | CC(C)(C)c1cc(/C=C(\C#N)C(N)=S)cc(C(C)(C)C)c1O [Tyrphostin AG 879] | 1.11 | 1.01 | 1.04 | 0.995 | 0.971 | 1.06 | 1.06 | 0.962 | 1.01 | 0.993 | 1 | 1.14 | 0.994 | 0.946 | 1.01 | 0.955 | 1.05 | 1.11
7 | COc1cc(Nc2ncc(F)c(Nc3ccc4c(n3)NC(=O)C(C)(C)O4)n2)cc(OC)c1OC | 1.34 | 1.26 | 0.469 | 1.77 | 0.587 | 0.367 | 1.25 | 1.29 | 0.373 | 1.1 | 0.993 | 0.997 | 1.19 | 0.952 | 1.12 | 0.651 | 1.01 | 0.927
8 | Cc1cc(Nc2nc(N[C@@H](C)c3ncc(F)cn3)ncc2Cl)[nH]n1 | 1.42 | 1.31 | 0.706 | 1.81 | 1.19 | 0.644 | 1.25 | 1.19 | 0.753 | 1.17 | 1.1 | 0.98 | 0.668 | 1 | 1.04 | 1.09 | 0.727 | 0.928
9 | N#CC[C@H](C1CCCC1)n1cc(-c2ncnc3[nH]ccc23)cn1 | 1.25 ± 0.05 | 1.3 ± 0.13 | 1.69 ± 0.2 | 1.44 ± 0.66 | 1.29 ± 0.048 | 1.57 ± 0.25 | 1.14 ± 0.09 | 1.3 ± 0.072 | 1.36 ± 0.019 | 1.11 ± 0.073 | 1.05 ± 0.068 | 1 ± 0.078 | 1.07 ± 0.069 | 1.04 ± 0.025 | 1.03 ± 0.096 | 1.03 ± 0.019 | 0.871 ± 0.19 | 0.904 ± 0.34
10 | O=C1NC(=O)/C(=C/c2ccc3nccc(-c4ccncc4)c3c2)S1 | 1.42 | 0.476 | 0.363 | 1.91 | 0.908 | 0.372 | 1.31 | 0.968 | 0.401 | 1.2 | 0.55 | 0.919 | 1.11 | 0.937 | 0.617 | 0.559 | 1.08 | 0.889
11 | Cc1cc2c(F)c(Oc3ncnn4cc(OC[C@@H](C)OC(=O)[C@H](C)N)c(C)c34)ccc2[nH]1 | 1.46 | 1.62 | 0.834 | 1.45 | 1.21 | 0.707 | 1.22 | 1.46 | 0.643 | 0.965 | 1 | 0.975 | 0.979 | 0.923 | 1.07 | 0.977 | 0.919 | 1.03
12 | CCn1c2ccccc2c2cc(Nc3ccnc(NCCCN4CCOCC4)n3)ccc21 | 1.16 | 1.48 | -0.06 | 1.2 | 1.55 | -0.0567 | 1.43 | 1.4 | 0.0951 | 0.943 | 0.915 | 0.779 | 1.11 | 0.945 | 0.806 | 0.949 | 0.925 | 0.769
13 | N#CC(=C(/N)Sc1ccccc1N)/C(C#N)=C(\N)Sc1ccccc1N | 1.44 | 1.68 | 1.02 | 1.43 | 1.01 | 0.795 | 1.33 | 1.36 | 0.546 | 0.992 | 1 | 1.06 | 0.961 | 0.967 | 1.04 | 0.931 | 0.966 | 0.809
14 | N#Cc1c(O)c2c(-c3ccc(-c4ccccc4O)cc3)csc2[nH]c1=O | 1.32 | 1.25 | 1.25 | 1.31 | 1.33 | 1.81 | 1.52 | 1.17 | 1.19 | 1.02 | 0.975 | 0.932 | 1.07 | 1.14 | 0.959 | 1.06 | 1.09 | 0.94
